Experimental data as given in PMC3274541.
Positions count from the first letter of the chain named. Results are given in words; binding and its absence hold for the method and conditions named. Binding seen in cells or lysates may run through a third protein. Some results given as binding are weak or reduced against the parent protein; the word gives no strength. For part of these data: Sequences can lack the tags named with a protein.

The chains behind the UniProt entries cited, without tags or fusion partners. Where a name states a change or a piece, a line headed by the entry shows the natural chain unless it says otherwise. A line that says so, or that is headed by a name, gives the form on record, which may keep a tag or linker.
NUB1-FLAG (NEDD8 ultimate buster-1) (Q9Y5A7-2, form named): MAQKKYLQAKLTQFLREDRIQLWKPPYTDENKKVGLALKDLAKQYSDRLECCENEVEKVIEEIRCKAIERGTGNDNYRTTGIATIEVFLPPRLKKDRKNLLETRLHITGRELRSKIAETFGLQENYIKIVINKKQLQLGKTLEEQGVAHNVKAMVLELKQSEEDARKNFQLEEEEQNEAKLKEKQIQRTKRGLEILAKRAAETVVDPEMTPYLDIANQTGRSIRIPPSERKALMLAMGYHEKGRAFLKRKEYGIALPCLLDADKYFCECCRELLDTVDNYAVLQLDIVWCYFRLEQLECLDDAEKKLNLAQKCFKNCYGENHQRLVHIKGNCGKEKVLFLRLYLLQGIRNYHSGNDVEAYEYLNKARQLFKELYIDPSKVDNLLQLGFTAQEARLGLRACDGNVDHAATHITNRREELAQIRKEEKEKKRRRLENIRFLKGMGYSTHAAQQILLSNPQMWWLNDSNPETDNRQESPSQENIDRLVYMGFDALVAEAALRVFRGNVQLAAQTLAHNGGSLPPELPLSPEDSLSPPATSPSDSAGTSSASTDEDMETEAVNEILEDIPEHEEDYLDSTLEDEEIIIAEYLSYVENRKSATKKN
UniProt O15205: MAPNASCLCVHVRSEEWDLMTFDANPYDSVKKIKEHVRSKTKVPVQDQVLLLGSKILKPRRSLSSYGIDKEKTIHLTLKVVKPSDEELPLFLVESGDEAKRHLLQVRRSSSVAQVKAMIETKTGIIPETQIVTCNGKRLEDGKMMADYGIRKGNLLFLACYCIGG

Tests used:
GST-AIPL1 = biological target: T1, GST-AIPL1 (UniProt Q9NZN9); experiment: pull-down; 0.38 nmol GST or GST-AIPL1 with GST-pre-cleared lysate of HA-FAT10-transfected SK-N-SH cells, 4°C overnight; Glutathione-Sepharose 4B, washes in ice-cold PBS; western blot; only the target purified
T1 sequence: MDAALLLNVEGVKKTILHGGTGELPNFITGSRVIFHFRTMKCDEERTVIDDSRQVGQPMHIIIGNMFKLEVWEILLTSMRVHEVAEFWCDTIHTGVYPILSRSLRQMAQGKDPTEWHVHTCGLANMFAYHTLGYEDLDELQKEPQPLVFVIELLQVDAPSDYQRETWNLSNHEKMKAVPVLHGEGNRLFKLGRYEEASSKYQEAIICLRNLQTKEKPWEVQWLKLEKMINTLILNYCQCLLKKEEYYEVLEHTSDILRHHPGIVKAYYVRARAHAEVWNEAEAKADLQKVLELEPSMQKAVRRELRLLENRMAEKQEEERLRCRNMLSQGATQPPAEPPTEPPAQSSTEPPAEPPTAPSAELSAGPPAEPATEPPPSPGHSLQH

[1] = biological target: T2, Myc-AIPL1 (aryl hydrocarbon receptor interacting protein-like 1), wild type (UniProt Q9NZN9); experiment: co-IP; SK-N-SH cells co-transfected; lysed in DM buffer (1% n-dodecyl-β-D-maltoside, 10 mM EDTA, protease inhibitors in PBS); 2 µl antibody 2 h at 4°C, Protein G Sepharose overnight at 4°C, 5 washes; western blot; with or without 50 µM MG132 for 4 h
T2 sequence: T1 sequence

[2] = biological target: NUB1-FLAG (NEDD8 ultimate buster-1) (UniProt Q9Y5A7); experiment: as above
HA-FAT10 = HA-FAT10 (UniProt O15205); experiment: as above
Myc-AIPL1 G262S = biological target: T3, Myc-AIPL1 G262S (UniProt Q9NZN9); experiment: as above
T3 sequence: T1 sequence with G262S

| binding (GST-AIPL1) | binding [1] | binding [2] | binding (HA-FAT10) | binding (Myc-AIPL1 G262S) | Substance |
| --- | --- | --- | --- | --- | --- |
| binds | binds | binds | – | – | HA-FAT10 (from UniProt O15205 1-165) |
| – | binds | – | binds | binds | NUB1-FLAG (NEDD8 ultimate buster-1) (from UniProt Q9Y5A7-2 1-601) |
